Drawing on PMC8222272, this text covers binding for one substance.

By UniProt entry, the sequences of proteins in these tests, tags left out. Where a name states a change or a piece, a line headed by the entry shows the natural chain unless it says otherwise. Chains listed by the source or under a name are the forms on record and can include a tag or linker. Residues count along the entry.
EGFP-tagged wild type LaminA (P02545, residues 1-646): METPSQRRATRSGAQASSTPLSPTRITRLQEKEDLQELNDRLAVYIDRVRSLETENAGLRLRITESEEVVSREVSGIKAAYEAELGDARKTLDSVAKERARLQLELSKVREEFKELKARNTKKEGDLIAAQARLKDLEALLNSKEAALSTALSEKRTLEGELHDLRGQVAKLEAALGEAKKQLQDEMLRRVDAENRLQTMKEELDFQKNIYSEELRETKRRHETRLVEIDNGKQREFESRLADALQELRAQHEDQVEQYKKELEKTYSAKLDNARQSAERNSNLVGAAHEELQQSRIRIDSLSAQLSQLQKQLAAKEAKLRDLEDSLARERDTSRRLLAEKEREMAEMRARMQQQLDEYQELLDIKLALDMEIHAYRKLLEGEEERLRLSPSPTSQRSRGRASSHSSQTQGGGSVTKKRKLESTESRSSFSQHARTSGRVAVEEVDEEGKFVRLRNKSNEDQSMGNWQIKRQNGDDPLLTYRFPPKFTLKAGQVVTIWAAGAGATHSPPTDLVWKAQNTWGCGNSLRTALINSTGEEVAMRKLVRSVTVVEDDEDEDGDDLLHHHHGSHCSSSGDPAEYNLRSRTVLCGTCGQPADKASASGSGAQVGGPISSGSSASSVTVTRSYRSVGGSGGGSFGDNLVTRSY
EGFP-tagged human LaminA∆50/progerin (P02545, form named): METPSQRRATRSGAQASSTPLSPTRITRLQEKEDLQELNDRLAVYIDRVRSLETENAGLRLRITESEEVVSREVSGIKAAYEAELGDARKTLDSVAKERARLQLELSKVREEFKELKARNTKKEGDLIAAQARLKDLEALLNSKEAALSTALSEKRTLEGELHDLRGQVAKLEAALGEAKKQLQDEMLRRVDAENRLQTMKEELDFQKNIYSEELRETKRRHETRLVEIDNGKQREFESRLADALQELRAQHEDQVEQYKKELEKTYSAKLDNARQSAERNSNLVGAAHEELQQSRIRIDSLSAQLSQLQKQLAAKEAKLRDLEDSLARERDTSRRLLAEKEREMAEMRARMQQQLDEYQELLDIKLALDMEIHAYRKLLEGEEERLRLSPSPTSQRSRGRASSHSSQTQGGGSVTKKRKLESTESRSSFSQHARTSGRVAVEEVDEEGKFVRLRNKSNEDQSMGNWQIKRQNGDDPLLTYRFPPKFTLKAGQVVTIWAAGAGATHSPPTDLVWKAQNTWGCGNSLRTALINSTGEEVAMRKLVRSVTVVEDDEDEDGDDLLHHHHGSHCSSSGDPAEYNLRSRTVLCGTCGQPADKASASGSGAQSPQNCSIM
UniProt Q12888: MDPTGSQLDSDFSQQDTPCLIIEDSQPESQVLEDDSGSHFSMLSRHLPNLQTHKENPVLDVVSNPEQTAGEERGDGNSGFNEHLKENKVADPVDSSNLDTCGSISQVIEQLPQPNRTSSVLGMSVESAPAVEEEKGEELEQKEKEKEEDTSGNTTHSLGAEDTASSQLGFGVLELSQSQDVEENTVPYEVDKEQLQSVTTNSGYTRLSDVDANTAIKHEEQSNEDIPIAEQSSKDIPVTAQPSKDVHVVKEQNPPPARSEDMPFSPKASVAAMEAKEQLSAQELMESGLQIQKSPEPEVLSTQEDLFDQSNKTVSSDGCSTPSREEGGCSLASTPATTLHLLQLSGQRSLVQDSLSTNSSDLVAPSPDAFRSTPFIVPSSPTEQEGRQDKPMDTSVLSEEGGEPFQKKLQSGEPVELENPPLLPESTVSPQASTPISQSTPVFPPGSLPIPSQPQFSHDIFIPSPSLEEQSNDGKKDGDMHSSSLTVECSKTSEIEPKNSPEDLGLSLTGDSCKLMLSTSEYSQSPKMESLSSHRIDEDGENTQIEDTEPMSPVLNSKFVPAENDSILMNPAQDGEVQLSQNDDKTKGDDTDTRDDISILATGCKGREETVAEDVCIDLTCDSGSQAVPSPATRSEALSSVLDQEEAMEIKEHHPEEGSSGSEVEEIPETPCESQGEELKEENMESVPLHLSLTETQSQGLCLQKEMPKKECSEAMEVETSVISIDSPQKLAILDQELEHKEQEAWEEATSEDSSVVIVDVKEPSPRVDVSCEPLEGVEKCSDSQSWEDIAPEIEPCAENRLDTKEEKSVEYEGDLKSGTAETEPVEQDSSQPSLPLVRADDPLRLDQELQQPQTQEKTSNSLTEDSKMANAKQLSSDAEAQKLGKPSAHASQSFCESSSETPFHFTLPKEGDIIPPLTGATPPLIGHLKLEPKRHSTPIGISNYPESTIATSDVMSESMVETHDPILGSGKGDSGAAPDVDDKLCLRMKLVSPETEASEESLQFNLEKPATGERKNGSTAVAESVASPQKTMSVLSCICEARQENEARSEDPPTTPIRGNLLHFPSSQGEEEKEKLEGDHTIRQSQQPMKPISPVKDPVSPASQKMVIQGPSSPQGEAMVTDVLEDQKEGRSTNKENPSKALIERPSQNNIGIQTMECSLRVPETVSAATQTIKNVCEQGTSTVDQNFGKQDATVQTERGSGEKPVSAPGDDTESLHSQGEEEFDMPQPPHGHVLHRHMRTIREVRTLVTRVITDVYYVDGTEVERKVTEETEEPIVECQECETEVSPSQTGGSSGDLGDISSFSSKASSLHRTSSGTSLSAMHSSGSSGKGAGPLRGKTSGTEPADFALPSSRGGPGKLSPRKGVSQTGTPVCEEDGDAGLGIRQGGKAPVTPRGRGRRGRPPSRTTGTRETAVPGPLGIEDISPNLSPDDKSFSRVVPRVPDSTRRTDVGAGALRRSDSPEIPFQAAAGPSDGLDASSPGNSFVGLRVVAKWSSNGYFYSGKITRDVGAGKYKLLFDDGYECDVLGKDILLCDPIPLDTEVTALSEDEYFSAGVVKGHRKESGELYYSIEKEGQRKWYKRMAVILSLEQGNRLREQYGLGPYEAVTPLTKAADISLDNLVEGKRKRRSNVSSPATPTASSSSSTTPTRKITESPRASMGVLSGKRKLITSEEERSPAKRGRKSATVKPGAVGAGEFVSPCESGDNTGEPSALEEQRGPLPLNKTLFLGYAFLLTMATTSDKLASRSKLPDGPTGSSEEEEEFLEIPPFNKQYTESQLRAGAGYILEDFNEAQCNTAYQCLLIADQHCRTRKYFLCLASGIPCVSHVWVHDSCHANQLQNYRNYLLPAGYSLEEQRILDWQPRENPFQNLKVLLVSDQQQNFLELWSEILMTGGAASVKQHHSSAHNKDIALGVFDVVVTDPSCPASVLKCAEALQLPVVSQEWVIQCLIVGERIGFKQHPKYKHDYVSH

In experiment [1] the target is EGFP-tagged wild type LaminA (human) (UniProt P02545). Kind of experiment: co-IP; EGFP pull-down (mMACS GFP Epitope Tag Isolation kit, Miltenyi) from nuclear extracts of HDF expressing NLS-EGFP, EGFP-LA or EGFP-PG; lysis buffer 50 mM Hepes pH 7.8, 50 mM KCl, 300 mM NaCl, 0.1 mM EDTA, 10% glycerol, 1 mM DTT; cells non-treated or treated with bleomycin 10 μg/ml, 30 min; western blot; n = 1. A general note: In western blotting, separated proteins are transferred to a membrane and probed.

Experiment [2] addresses EGFP-tagged human LaminA∆50/progerin (human) (UniProt P02545). The description is as above.

These are yes or no findings as the source states them, for the method shown. In cells and extracts the contact can be indirect. Some results given as binding are weak or reduced against the parent protein; the word gives no strength.

Turning to 53BP1 (from UniProt Q12888 1-1972), the binding result in experiment [1] and in experiment [2] was “binds” in each case.
